Literature values, collected in patent US20130096099A1, “METHOD OF TREATING BRAIN CANCER” (NIIKI PHARMA INC., priority 2010, published 2013).
At least one compound was matched to its structure with a doubt left.

System: U87 cell line
Details: Bowles et al., J. Neurosurg., 73:248-253 (1990); cited from earlier work

Cn1nnc2c(C(N)=O)ncn2c1=O [temozolomide]
resistance of U87 cell line to drug: relatively resistant
